Test results: patent US20040132700A1, “Use of fluticasone propionate in the treatment of diseases ameliorated by enhancement of epithelial madrix adhesion such as asthma cystic fibrosis and influenza” (priority 2001, published 2004)
For at least one compound, name, drawing or mass did not settle the structure.

Test system: 16HBE epithelial cells
Test: mechanical wounding of confluent 16HBE epithelial cultures, wound area
Format: cell-based
Settings: 16HBE cultures, various steroid concentrations for 24 h or 48 h before wounding (FIG. 7), versus control cultures
Procedure: To study the effect of FP on protection from mechanical damage, multiple concentric wounds were generated in multiwell plates, thus achieving a large total wound length for analysis. 10^4 cells in 0.2 ml of growth medium containing 5% steroid-free FCS were added to wells in 96 well plates and cultured until confluent with regular changes of growth medium. Cultures were incubated for a further 24 h or 48 h before wounding. After wounding, cultures were rinsed in PBS, fixed at room temperature in methanol/acetone (50/50), air dried and then stained with 0.1% crystal violet. Wound areas were determined using a Leica Q550IW image analysis system. […] The steroid effects were obvious at 24 h, but even more marked at 48 h. At the latter time point, control wound size had increased, whilst the highest dose of either steroid had reduced wound size, compared to wounds after 24 h exposure. […] In the control cultures, tearing of the epithelium from the dish surface beyond the area of direct contact with the needle occurs producing a wound width that is much greater than the needle width. In contrast, in steroid treated cultures, wounds become progressively smaller with increasing steroid concentration until the damage area is limited to the epithelium that has had direct contact with the needle.

`C[C@@H]1C[C@H]2[C@@H]3CCC4=CC(=O)C=C[C@]4(C)[C@@]3(F)[C@@H](O)C[C@]2(C)[C@@]1(O)C(=O)CO` [dexamethasone] was tested, and the “wound size (wound area)” value was “dose-related decrease in wound size”.
